Results as given in article PMC3973991.
These are yes or no findings as the source states them, for the method shown. For some assays here: In cells and extracts the contact can be indirect. Some binding calls cover weakened binding; strength is not graded here.

Chains of the proteins cited; added tags and fusions are not shown. Residues count along the entry.
UniProt Q63373, residues 47-468: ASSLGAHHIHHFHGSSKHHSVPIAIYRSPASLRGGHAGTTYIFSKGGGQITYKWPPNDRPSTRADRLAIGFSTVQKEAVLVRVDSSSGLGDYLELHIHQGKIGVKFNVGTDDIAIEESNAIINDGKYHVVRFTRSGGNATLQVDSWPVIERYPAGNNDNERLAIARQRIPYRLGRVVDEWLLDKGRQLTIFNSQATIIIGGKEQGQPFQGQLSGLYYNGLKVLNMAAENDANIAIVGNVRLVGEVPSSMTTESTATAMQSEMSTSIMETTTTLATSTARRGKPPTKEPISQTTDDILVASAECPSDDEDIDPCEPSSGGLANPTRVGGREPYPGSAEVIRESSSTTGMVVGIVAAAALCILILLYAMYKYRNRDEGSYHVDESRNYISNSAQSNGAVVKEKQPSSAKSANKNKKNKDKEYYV

T1: human read-through acetylcholinesterase (hAChE-R) (human), P22303
T1 chain: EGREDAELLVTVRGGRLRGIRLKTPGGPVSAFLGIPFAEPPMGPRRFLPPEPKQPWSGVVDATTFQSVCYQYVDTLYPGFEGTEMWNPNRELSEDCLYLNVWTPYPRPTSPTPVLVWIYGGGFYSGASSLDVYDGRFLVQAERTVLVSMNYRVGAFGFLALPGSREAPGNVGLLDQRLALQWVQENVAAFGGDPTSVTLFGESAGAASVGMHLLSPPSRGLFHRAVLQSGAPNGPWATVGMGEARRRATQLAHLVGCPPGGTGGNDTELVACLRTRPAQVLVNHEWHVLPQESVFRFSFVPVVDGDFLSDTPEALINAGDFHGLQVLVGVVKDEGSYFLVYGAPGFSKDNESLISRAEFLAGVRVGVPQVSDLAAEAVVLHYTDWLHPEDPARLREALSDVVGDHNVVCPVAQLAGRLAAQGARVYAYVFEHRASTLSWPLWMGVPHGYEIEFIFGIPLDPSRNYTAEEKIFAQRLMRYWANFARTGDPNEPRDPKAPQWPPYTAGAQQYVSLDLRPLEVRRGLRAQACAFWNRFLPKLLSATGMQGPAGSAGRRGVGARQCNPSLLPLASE


Columns and labels:
[1] = target: human synaptic acetylcholinesterase (hAChE-S) (human) (UniProt P22303); assay: co-IP; lysate of HEK293 cells co-transfected with neurexin-1β-His and hAChE; 1% Triton X-100, 0.5% sodium deoxycholate in PBS; anti-AChE or anti-His 3 h at 4°C; physostigmine 10 μM in all buffers; cells cultured without or with 10 μM physostigmine
[2] = target: T1, human read-through acetylcholinesterase …; assay: immunoblot of a non-reducing gel; lysate or culture medium of transfected HEK293 cells on a 10% gel, loading buffer without reducing agent; anti-AChE; conditions: remark: other sources report otherwise

Molecule	binding [1]	binding [2]
neurexin-1β-3’-His (rat neurexin-1β containing alternatively spliced sequence 4) (from UniProt Q63373 47-468) (receptor)	binds	
human read-through acetylcholinesterase (hAChE-R), P22303-4 32-603 (enzyme, here or on the partner: N-linked glycans (sites not given); N-linked glycans (sites not given)) EGREDAELLVTVRGGRLRGIRLKTPGGPVSAFLGIPFAEPPMGPRRFLPPEPKQPWSGVVDATTFQSVCYQYVDTLYPGFEGTEMWNPNRELSEDCLYLNVWTPYPRPTSPTPVLVWIYGGGFYSGASSLDVYDGRFLVQAERTVLVSMNYRVGAFGFLALPGSREAPGNVGLLDQRLALQWVQENVAAFGGDPTSVTLFGESAGAASVGMHLLSPPSRGLFHRAVLQSGAPNGPWATVGMGEARRRATQLAHLVGCPPGGTGGNDTELVACLRTRPAQVLVNHEWHVLPQESVFRFSFVPVVDGDFLSDTPEALINAGDFHGLQVLVGVVKDEGSYFLVYGAPGFSKDNESLISRAEFLAGVRVGVPQVSDLAAEAVVLHYTDWLHPEDPARLREALSDVVGDHNVVCPVAQLAGRLAAQGARVYAYVFEHRASTLSWPLWMGVPHGYEIEFIFGIPLDPSRNYTAEEKIFAQRLMRYWANFARTGDPNEPRDPKAPQWPPYTAGAQQYVSLDLRPLEVRRGLRAQACAFWNRFLPKLLSATGMQGPAGSAGRRGVGARQCNPSLLPLASE		no binding
